{"source": "PubChem BioAssay AID504774 (Drosophila RNAi Screening Center, 2011)", "purpose": "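Genes required for cells to withstand methyl methanesulphonate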 (primary screen)", "cells": "Drosophila Kc167 cells", "reagent": "long dsRNA against Drosophila genes, about 0.25 µg dsRNA per well", "duration": "about 6 days: 3 days knock-down, then 3 days with or without MMS", "treatment": "methyl methanesulphonate 0.004% (w/v) for 3 days after knock-down", "measured": "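ATP-dependent luminescence as a measure of live cells in MMS-exposed wells, quantile normalised within each plate, with replicate values also given as a mean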", "reading the numbers": "mean viability with MMS and viability with MMS: higher = more surviving cells after MMS", "note": "The screen tested about 23,000 reagents; shown is an unselected part of those that have a named target and a result. 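Values are quantile-normalised luminescence on an arbitrary scale; higher means more cells surviving MMS.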 Not all columns of the deposit are shown. No sequences are given here."}
{"Target gene":"CG10761","DRSC id":"DRSC17753","mean viability with MMS":3.60e6,"viability with MMS, replicate 1":4.12e6}
{"Target gene":"CG32450","DRSC id":"DRSC11546","mean viability with MMS":3.56e6,"viability with MMS, replicate 1":4.18e6}
{"Target gene":"AttD (Attacin-D)","DRSC id":"DRSC16272","mean viability with MMS":1.99e6,"viability with MMS, replicate 1":4.14e6}
{"Target gene":"Mal-A8 (Maltase A8)","DRSC id":"DRSC07234","mean viability with MMS":3.64e6,"viability with MMS, replicate 1":4.09e6}
{"Target gene":"CG17707","DRSC id":"DRSC20650","mean viability with MMS":3.57e6,"viability with MMS, replicate 1":4.10e6}
{"Target gene":"Irp-1A (Iron regulatory protein 1A)","DRSC id":"DRSC16719","mean viability with MMS":3.60e6,"viability with MMS, replicate 1":4.08e6}
{"Target gene":"Spn75F (Serpin 75F)","DRSC id":"DRSC09589","mean viability with MMS":3.62e6,"viability with MMS, replicate 1":4.24e6}
{"Target gene":"CG7889","DRSC id":"DRSC20066","mean viability with MMS":3.75e6,"viability with MMS, replicate 1":4.15e6}
{"Target gene":"CG15641","DRSC id":"DRSC19677","mean viability with MMS":3.58e6,"viability with MMS, replicate 1":4.07e6}
{"Target gene":"Zif (Zinc-finger protein)","DRSC id":"DRSC12514","mean viability with MMS":3.42e6,"viability with MMS, replicate 1":3.85e6}
{"Target gene":"CG14803","DRSC id":"DRSC18556","mean viability with MMS":3.51e6,"viability with MMS, replicate 1":3.98e6}
{"Target gene":"Snx6 (Sorting nexin 6)","DRSC id":"DRSC03081","mean viability with MMS":3.65e6,"viability with MMS, replicate 1":4.18e6}
{"Target gene":"CG5177","DRSC id":"DRSC02824","mean viability with MMS":3.58e6,"viability with MMS, replicate 1":4.08e6}
{"Target gene":"insb (insensible)","DRSC id":"DRSC06995","mean viability with MMS":3.48e6,"viability with MMS, replicate 1":3.95e6}
{"Target gene":"Ets65A (Ets at 65A)","DRSC id":"DRSC09968","mean viability with MMS":3.53e6,"viability with MMS, replicate 1":3.93e6}
{"Target gene":"Ets65A (Ets at 65A)","DRSC id":"DRSC10738","mean viability with MMS":3.67e6,"viability with MMS, replicate 1":4.24e6}
{"Target gene":"Ets65A (Ets at 65A)","DRSC id":"DRSC11164","mean viability with MMS":3.62e6,"viability with MMS, replicate 1":4.02e6}
{"Target gene":"CG9302","DRSC id":"DRSC03191","mean viability with MMS":1.59e6,"viability with MMS, replicate 1":3.88e6}

Only “mean viability with MMS” (5 entries from above):
Snx6 (Sorting nexin 6) [DRSC03081]: 3.65e6
CG5177 [DRSC02824]: 3.58e6
insb (insensible) [DRSC06995]: 3.48e6
Ets65A (Ets at 65A) [DRSC09968]: 3.53e6
Ets65A (Ets at 65A) [DRSC10738]: 3.67e6

Additional entries follow:
{"Target gene":"Smox (Smad on X)","DRSC id":"DRSC18716","mean viability with MMS":3.63e6,"viability with MMS, replicate 1":4.14e6}
{"Target gene":"cu (curled)","DRSC id":"DRSC15643","mean viability with MMS":3.49e6,"viability with MMS, replicate 1":4.00e6}
{"Target gene":"cu (curled)","DRSC id":"DRSC15648","mean viability with MMS":3.49e6,"viability with MMS, replicate 1":3.88e6}
{"Target gene":"CG5938","DRSC id":"DRSC15923","mean viability with MMS":3.87e6,"viability with MMS, replicate 1":4.53e6}
{"Target gene":"CG32655","DRSC id":"DRSC18925","mean viability with MMS":3.44e6,"viability with MMS, replicate 1":3.89e6}
{"Target gene":"Lsd-1 (Lipid storage droplet-1)","DRSC id":"DRSC14236","mean viability with MMS":3.43e6,"viability with MMS, replicate 1":4.00e6}
{"Target gene":"snama (something that sticks like glue)","DRSC id":"DRSC04049","mean viability with MMS":3.44e6,"viability with MMS, replicate 1":3.81e6}
{"Target gene":"Mcm6 (Minichromosome maintenance 6)","DRSC id":"DRSC18680","mean viability with MMS":3.66e6,"viability with MMS, replicate 1":4.14e6}
{"Target gene":"Tim17b2 (Translocase inner membrane 17)","DRSC id":"DRSC03457","mean viability with MMS":3.69e6,"viability with MMS, replicate 1":4.10e6}
{"Target gene":"CG3287 (retired record)","DRSC id":"DRSC04991","mean viability with MMS":3.67e6,"viability with MMS, replicate 1":4.22e6}
{"Target gene":"Dhc98D (Dynein heavy chain at 89D)","DRSC id":"DRSC16645","mean viability with MMS":3.48e6,"viability with MMS, replicate 1":3.91e6}
{"Target gene":"Zw10 (Zeste-white 10)","DRSC id":"DRSC18793","mean viability with MMS":3.59e6,"viability with MMS, replicate 1":4.07e6}
{"Target gene":"Or22a (Odorant receptor 22a)","DRSC id":"DRSC00764","mean viability with MMS":3.45e6,"viability with MMS, replicate 1":3.82e6}
{"Target gene":"l(2)k09913 (lethal (2) k09913)","DRSC id":"DRSC04699","mean viability with MMS":3.67e6,"viability with MMS, replicate 1":4.04e6}
{"Target gene":"CG12118","DRSC id":"DRSC17813","mean viability with MMS":3.50e6,"viability with MMS, replicate 1":3.96e6}
{"Target gene":"dx (deltex)","DRSC id":"DRSC18767","mean viability with MMS":3.65e6,"viability with MMS, replicate 1":4.16e6}
{"Target gene":"Vta1 (Vesicle trafficking 1)","DRSC id":"DRSC08604","mean viability with MMS":3.58e6,"viability with MMS, replicate 1":3.91e6}
{"Target gene":"Vta1 (Vesicle trafficking 1)","DRSC id":"DRSC22848","mean viability with MMS":3.29e6,"viability with MMS, replicate 1":3.85e6}
{"Target gene":"CG15728","DRSC id":"DRSC19694","mean viability with MMS":3.63e6,"viability with MMS, replicate 1":3.96e6}
{"Target gene":"CG15728","DRSC id":"DRSC22868","mean viability with MMS":3.19e6,"viability with MMS, replicate 1":3.81e6}
{"Target gene":"skl (sickle)","DRSC id":"DRSC10050","mean viability with MMS":3.52e6,"viability with MMS, replicate 1":3.95e6}
{"Target gene":"mino (minotaur)","DRSC id":"DRSC14132","mean viability with MMS":3.50e6,"viability with MMS, replicate 1":3.95e6}
{"Target gene":"kuk (kugelkern)","DRSC id":"DRSC15730","mean viability with MMS":3.78e6,"viability with MMS, replicate 1":4.22e6}
{"Target gene":"REPTOR-BP (REPTOR-binding partner)","DRSC id":"DRSC02683","mean viability with MMS":3.39e6,"viability with MMS, replicate 1":4.02e6}
{"Target gene":"ND-18 (NADH dehydrogenase (ubiquinone) 18 kDa subunit)","DRSC id":"DRSC19441","mean viability with MMS":3.51e6,"viability with MMS, replicate 1":3.97e6}
{"Target gene":"MP1 (Melanization Protease 1)","DRSC id":"DRSC12124","mean viability with MMS":3.68e6,"viability with MMS, replicate 1":4.18e6}
{"Target gene":"Pfdn2 (Prefoldin 2)","DRSC id":"DRSC10618","mean viability with MMS":3.45e6,"viability with MMS, replicate 1":3.92e6}
